Consider 1 molecule from patent EP4755915A1.

Amino acid sequences for entries named in this document (tags omitted). A change or cut given only in a name is not applied to a line headed by its entry.
UniProt P02708: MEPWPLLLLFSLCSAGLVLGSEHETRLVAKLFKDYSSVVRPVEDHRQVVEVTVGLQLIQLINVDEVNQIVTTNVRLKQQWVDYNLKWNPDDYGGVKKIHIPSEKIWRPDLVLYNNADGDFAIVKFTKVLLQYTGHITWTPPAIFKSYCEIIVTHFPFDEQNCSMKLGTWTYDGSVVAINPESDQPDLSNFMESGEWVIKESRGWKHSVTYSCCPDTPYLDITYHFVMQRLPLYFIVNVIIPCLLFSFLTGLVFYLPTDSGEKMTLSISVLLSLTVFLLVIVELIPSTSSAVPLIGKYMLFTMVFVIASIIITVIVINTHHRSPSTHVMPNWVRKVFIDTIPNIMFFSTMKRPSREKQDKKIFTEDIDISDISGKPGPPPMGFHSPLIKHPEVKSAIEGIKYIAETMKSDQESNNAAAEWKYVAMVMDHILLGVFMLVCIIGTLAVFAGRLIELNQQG
UniProt P11230: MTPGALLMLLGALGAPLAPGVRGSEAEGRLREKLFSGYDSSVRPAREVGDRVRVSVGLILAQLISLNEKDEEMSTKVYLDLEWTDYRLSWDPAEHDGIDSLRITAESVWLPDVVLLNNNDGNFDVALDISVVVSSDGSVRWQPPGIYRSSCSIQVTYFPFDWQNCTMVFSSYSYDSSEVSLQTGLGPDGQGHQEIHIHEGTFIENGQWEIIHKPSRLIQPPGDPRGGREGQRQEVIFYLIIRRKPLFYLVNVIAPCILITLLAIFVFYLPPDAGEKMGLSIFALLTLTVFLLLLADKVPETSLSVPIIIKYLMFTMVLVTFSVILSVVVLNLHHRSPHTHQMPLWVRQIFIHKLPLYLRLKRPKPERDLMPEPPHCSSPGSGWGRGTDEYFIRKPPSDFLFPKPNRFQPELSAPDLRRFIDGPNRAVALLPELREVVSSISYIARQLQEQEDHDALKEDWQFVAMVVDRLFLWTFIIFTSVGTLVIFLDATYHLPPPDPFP
UniProt Q07001: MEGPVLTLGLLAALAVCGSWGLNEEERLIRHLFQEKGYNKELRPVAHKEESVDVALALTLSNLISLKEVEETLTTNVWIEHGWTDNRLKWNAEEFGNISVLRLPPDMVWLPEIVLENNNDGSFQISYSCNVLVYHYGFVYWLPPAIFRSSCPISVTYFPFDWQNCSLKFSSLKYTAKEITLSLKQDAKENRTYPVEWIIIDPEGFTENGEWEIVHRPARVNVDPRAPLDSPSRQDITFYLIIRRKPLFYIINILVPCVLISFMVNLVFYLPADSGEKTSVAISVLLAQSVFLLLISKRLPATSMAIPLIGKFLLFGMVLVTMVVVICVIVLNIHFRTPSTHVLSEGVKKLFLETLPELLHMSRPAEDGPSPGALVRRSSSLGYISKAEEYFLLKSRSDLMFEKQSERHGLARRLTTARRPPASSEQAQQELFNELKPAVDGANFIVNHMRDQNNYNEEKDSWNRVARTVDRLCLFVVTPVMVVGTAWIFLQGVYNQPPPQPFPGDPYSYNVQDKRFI
UniProt P07510: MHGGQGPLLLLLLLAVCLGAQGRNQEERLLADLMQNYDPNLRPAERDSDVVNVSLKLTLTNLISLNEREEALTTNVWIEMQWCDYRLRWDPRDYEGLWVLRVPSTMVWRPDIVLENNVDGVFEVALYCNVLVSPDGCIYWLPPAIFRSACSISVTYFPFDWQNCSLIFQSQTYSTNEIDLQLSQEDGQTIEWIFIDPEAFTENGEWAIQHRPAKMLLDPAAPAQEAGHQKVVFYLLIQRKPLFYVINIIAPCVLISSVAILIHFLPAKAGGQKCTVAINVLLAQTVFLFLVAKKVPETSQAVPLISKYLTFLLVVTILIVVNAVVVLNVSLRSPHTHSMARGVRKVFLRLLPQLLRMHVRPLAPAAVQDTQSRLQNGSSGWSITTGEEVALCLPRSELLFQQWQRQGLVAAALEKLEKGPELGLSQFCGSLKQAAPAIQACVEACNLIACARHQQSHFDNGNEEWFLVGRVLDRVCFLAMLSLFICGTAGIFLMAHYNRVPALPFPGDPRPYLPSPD

Results are given in words; binding and its absence hold for the method and conditions named. Some binding calls cover weakened binding; strength is not graded here.

The target in this assay is fetal acetylcholine receptor (AChR) on the cell membrane of TE671 cells (human) (UniProt P02708+P11230+Q07001+P07510). The assay can be described thus: flow cytometry competition on TE671 cells expressing fetal AChR; competitor biotinylated mAb637 at 8 µg/ml, detected with labelled streptavidin. For orientation: In flow cytometry, cells or beads pass a laser one at a time.

B1: mAb637 C (antibody, human IgG2, kappa)
heavy: NFELTQPHSVSESPGKTVTISCTRSSGSIASNYVQWYQQRPGSSPTTVIYEDNQRPSGVPDRFSGSIDSSSNSASLTISGLKTEDEADYYCQSYDSNSGGRVFGGGTKLTVLASTKGPSVFPLAPCSRSTSESTAALGCLVKDYFPEPVTVSWNSGALTSGVHTFPAVLQSSGLYSLSSVVTVPSSNFGTQTYTCNVDHKPSNTKVDKTVERKCCVECPPCPAPPVAGPSVFLFPPKPKDTLMISRTPEVTCVVVDVSQEDPEVQFNWYVDGVEVHNAKTKPREEQFNSTYRVVSVLTVLHQDWLNGKEYKCKVSNKGLPSSIEKTISKAKGQPREPQVYTLPPSQEEMTKNQVSLTCLVKGFYPSDIAVEWESNGQPENYKTTPPVLDSDGSFFLYSRLTVDKSRWQEGNVFSCSVMHEALHNHYTQKSLSLSLGK
light: QVQLLESGGGLVKPGGSLRLSCAASGFKSTDYYMAWVRQAPGRGLEWVSFISGRVFTNYTASVRGRFTVFREDDNTSVYLQMSRLRVEDTAVYYCARLRGIFRGPLKPLEYYFDLWGRGTLVTVSSRTVAAPSVFIFPPSDEQLKSGTASVVCLLNNFYPREAKVQWKVDNALQSGNSQESVTEQDSKDSTYSLSSTLTLSKADYEKHKVYACEVTHQGLSSPVTKSFNRGEC
For B1, the binding result is listed as “binds”.
